Laboratory results: PubChem BioAssay AID686938 (Drosophila RNAi Screening Center, 2013)
Assay: 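Fly genes required for calcium entry once internal stores are emptied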 (primary screen). Cells: Drosophila S2R+ cells. Reagents: long dsRNA against Drosophila genes, about 0.25 µg dsRNA per well, roughly 10,000 cells. Timing: 5 days of knock-down before the calcium assay. Conditions: thapsigargin (SERCA pump blocker) to empty calcium stores; entry signal taken 4 min after adding it. Measurement: 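Per-well fluo-4 fluorescence in two replicates, unnormalised, measured in resting cells and 4 min after store depletion by the SERCA blocker thapsigargin; ratio of the two present in few wells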. Scale: calcium entry signal: higher = stronger calcium signal after store depletion; entry to resting ratio: higher = more calcium entry relative to resting level; resting calcium signal: higher = higher resting calcium signal. Rule for the call: 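Hit if the duplicate-averaged plate z-score for entry over resting signal is under −3; wells with weak total dye signal (Fmax z < −2) or more than 5 off-targets removed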. Calls: active = strongly reduced calcium entry; inactive = no strong reduction.
The screen tested about 23,000 reagents; this is an unselected part of those that have a named target and a result. Of all reagents, 75 (0.33%) were called active. 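Raw plate signals without normalisation; calls rest on plate z-scores that were not deposited; ratio present for only 364 wells.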 Names joined by + are all predicted targets of the reagent. No sequences are given here. The record does not give: the dose of the treatment.

The opening 5 records, ahead of the listing:
no.	Gene	DRSC id	calcium entry signal, replicate 1 (fluorescence units)	calcium entry signal, replicate 2 (fluorescence units)	entry to resting ratio	resting calcium signal, replicate 1 (fluorescence units)	resting calcium signal, replicate 2 (fluorescence units)	outcome
1	CG16984	DRSC08500	3.80e7	5.72e7		1.93e7	2.37e7	inactive
2	lbl	DRSC16986	4.35e7	4.02e7		5.55e7	1.82e7	inactive
3	CG11698	DRSC14355	3.56e7	1.89e7		1.78e7	1.03e7	inactive
4	Nha2	DRSC14689	5.70e7	6.34e7		2.78e7	2.78e7	inactive
5	Nha2	DRSC15619	5.89e7	4.64e7		3.20e7	2.30e7	inactive

Results, repeating the preview:
no.	Gene	DRSC id	calcium entry signal, replicate 1 (fluorescence units)	calcium entry signal, replicate 2 (fluorescence units)	entry to resting ratio	resting calcium signal, replicate 1 (fluorescence units)	resting calcium signal, replicate 2 (fluorescence units)	outcome
1	CG16984	DRSC08500	3.80e7	5.72e7		1.93e7	2.37e7	inactive
2	lbl	DRSC16986	4.35e7	4.02e7		5.55e7	1.82e7	inactive
3	CG11698	DRSC14355	3.56e7	1.89e7		1.78e7	1.03e7	inactive
4	Nha2	DRSC14689	5.70e7	6.34e7		2.78e7	2.78e7	inactive
5	Nha2	DRSC15619	5.89e7	4.64e7		3.20e7	2.30e7	inactive
6	Nha2	DRSC15623	5.90e7	6.73e7		2.75e7	2.70e7	inactive
7	Smurf	DRSC07641	5.13e7	6.56e7		2.42e7	3.20e7	inactive
8	CG33107	DRSC21898	3.10e7	3.74e7		1.47e7	1.99e7	inactive
9	CG43090	DRSC17439	3.61e7	3.55e7		1.71e7	1.80e7	inactive
10	Ssrp	DRSC04658	1.39e7			8.53e6		inactive
11	Tctp	DRSC15649	3.15e7	2.85e7		1.62e7	1.47e7	inactive
12	fz2	DRSC09595	2.11e7	2.50e7		9.92e6	1.20e7	inactive
13	fz2	DRSC10087	4.42e7	5.59e7		2.09e7	2.77e7	inactive
14	fz2	DRSC11349	2.26e7	3.38e7		1.11e7	1.53e7	inactive
15	Karl	DRSC19883	2.94e7	3.36e7		1.42e7	1.39e7	inactive
16	CG42680	DRSC01399	3.03e7	4.39e7		1.58e7	1.93e7	inactive
17	CG17996 + Tsen2	DRSC02650	4.11e7	2.55e7		1.82e7	1.12e7	inactive
18	Lsp1alpha	DRSC20258	4.57e7	3.11e7		2.26e7	1.49e7	inactive
19	CG33958	DRSC06472	4.97e7	4.32e7		2.12e7	2.07e7	inactive
20	CG33958	DRSC06944	5.08e7	4.94e7		2.20e7	2.27e7	inactive
21	CG4907	DRSC15673	4.58e7	6.51e7		2.22e7	2.62e7	inactive
22	trx	DRSC17089	2.50e7	2.69e7		1.08e7	1.31e7	inactive
23	CG7011 + Prp31	DRSC10760	3.56e7	4.48e7		1.69e7	2.99e7	inactive
24	CG7872	DRSC20062	2.67e7	3.23e7		1.34e7	1.44e7	inactive
25	CG7191	DRSC03022	2.20e7	3.42e7		1.06e7	1.48e7	inactive
26	Ptpmeg2	DRSC18277	4.34e7	5.92e7		2.15e7	2.81e7	inactive
27	Ptpmeg2	DRSC18278	4.27e7	5.20e7		2.09e7	2.51e7	inactive
28	Ptpmeg2	DRSC23303	5.00e7	3.55e7		2.53e7	1.62e7	inactive
29	Theg	DRSC16023	1.83e7	2.23e7		1.00e7	1.06e7	inactive
30	CG30016	DRSC05242	5.46e7	4.46e7		2.41e7	1.81e7	inactive
31	CG14625	DRSC18633	4.05e7	6.50e7	2.1	1.93e7	2.72e7	inactive
32	Cyp4ac1	DRSC03302	4.87e7	3.19e7		2.21e7	1.51e7	inactive
33	CG9344	DRSC04541	3.96e7	4.78e7		2.04e7	2.00e7	inactive
34	eEF1delta	DRSC02790	4.03e7			1.94e7		inactive
35	CG13616	DRSC14619	3.38e7	4.96e7		1.89e7	1.92e7	inactive
36	Hasp	DRSC02022	3.67e7			2.04e7		inactive
37	Kul	DRSC15404	4.21e7	4.18e7		2.15e7	2.10e7	inactive
38	CG17493	DRSC03798	3.31e7	4.40e7		2.21e7	2.08e7	inactive
39	CG9389	DRSC11857	4.06e7	4.95e7		1.93e7	3.11e7	inactive
40	CG11663	DRSC17793	4.25e7	5.50e7	1.9	2.20e7	2.34e7	inactive
41	CG11663	DRSC23063	3.06e7	3.39e7		1.65e7	1.55e7	inactive
